Results deposited as PubChem BioAssay AID504791 (Drosophila RNAi Screening Center, 2011)

- Assay: 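Genes whose knock-down strengthens or weakens small-RNA reporter silencing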 (primary screen)
- System: Drosophila S2-derived reporter cells
- Reagents: long dsRNA against Drosophila genes, about 150-250 ng dsRNA per well (siRNA assay); about 80-120 ng (miRNA assay)
- Duration: about 5 days (siRNA assay); about 4 days (miRNA assay)
- Challenge: copper sulfate induction of reporters: 25 µM (siRNA assay); 200 mM stated (miRNA assay), 1-2 days before reading
- Measurement: 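Dual luciferase assay: Renilla to firefly signal ratio in each well, scaled to the mean ratio of its plate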
- Active means: 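First-pass picks had plate-scaled ratios over 1.5 for the siRNA assay, over 1.6 for the miRNA assay, or under 0.6; two distinct dsRNAs had to score alike on retest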
In all, the deposit lists about 23,000 reagents; below is a random part of those with a known target gene and a result. Of all reagents, 199 (0.86%) are marked active. 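Plate-scaled ratios behind the calls are not deposited; printed light signals are raw; many rows marked increased or decreased are still called inactive.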 Reagents against one gene are numbered here. Names joined by + are all predicted targets of the reagent. Not given: the direction of the score.

| target gene | reagent | miRNA reporter change | stable assay Renilla, run 1 (luminescence) | stable assay firefly, run 1 (luminescence) | Outcome |
| --- | --- | --- | --- | --- | --- |
| nxf2 | 1 | – | 10044 | 4.20e5 | inactive |
| ktub | 1 | – | 28885 | 1.30e6 | inactive |
| Rpt4R | 1 | – | 4791 | 3.18e5 | inactive |
| ATbp | 1 | – | 4587 | 2.92e5 | inactive |
| Drep1 | 1 | – | 5247 | 3.53e5 | inactive |
| Cpr65Ay | 1 | – | 5090 | 4.59e5 | inactive |
| peo | 1 | – | 7790 | 3.84e5 | inactive |
| CG12811 | 1 | – | 6879 | 4.27e5 | inactive |
| mRpS23 | 1 | – | 5090 | 5.00e5 | inactive |
| CG30096 | 1 | – | 9322 | 4.32e5 | inactive |
| CG31279 | 1 | – | 3368 | 3.34e5 | inactive |
| CG10365 | 1 | – | 6626 | 3.41e5 | inactive |
| CG13544 | 1 | – | 5063 | 3.36e5 | inactive |
| FASN1 | 1 | – | 26666 | 2.57e5 | inactive |
| CG33635 | 1 | – | 4292 | 3.76e5 | inactive |
| CG9411 | 1 | – | 8574 | 4.98e5 | inactive |
| PGRP-SA | 1 | – | 5343 | 4.39e5 | inactive |
| Ir47a | 1 | – | 6591 | 3.71e5 | inactive |
| CG7322 | 1 | – | 7138 | 3.77e5 | inactive |
| lncRNA:CR42646 | 1 | – | 4275 | 3.44e5 | inactive |
| mei-217 + mei-218 | 1 | – | 4938 | 3.53e5 | inactive |
| CG3430 | 1 | – | 9739 | 1.88e5 | inactive |
| Cpn | 1 | – | 8501 | 4.82e5 | inactive |
| Cpn | 2 | reporter ratio raised past the hit cutoff | – | – | inactive |
| CG8243 | 1 | – | 7202 | 4.29e5 | inactive |
| CG8243 | 2 | – | 2584 | 3.20e5 | inactive |
| CG34334 | 1 | – | 5750 | 4.16e5 | inactive |
| Sems | 1 | – | 7366 | 4.23e5 | inactive |
| Orct2 | 1 | – | 9055 | 3.43e5 | inactive |
| CG10616 | 1 | – | 7231 | 3.31e5 | inactive |
| CG14480 | 1 | – | 6979 | 3.74e5 | inactive |
| CG30413 | 1 | – | 5403 | 3.87e5 | inactive |
| CG13168 | 1 | – | 5655 | 3.02e5 | inactive |
| CngA | 1 | – | 5834 | 2.83e5 | inactive |
| CngA | 2 | – | 6010 | 3.68e5 | inactive |
| ATPsyngamma | 1 | – | 5096 | 3.21e5 | inactive |
| MICU3 | 1 | – | 4875 | 3.60e5 | inactive |
| MICU3 | 2 | – | 8074 | 2.78e5 | inactive |
| mEFTs | 1 | – | 6359 | 1.48e6 | inactive |
| dia | 1 | – | 7623 | 3.72e5 | inactive |
| aly | 1 | – | 5931 | 2.86e5 | inactive |
| aly | 2 | – | 8643 | 4.77e5 | inactive |
| tef | 1 | – | 9922 | 3.80e5 | inactive |
| tef | 2 | – | 8711 | 5.75e5 | inactive |
| cnn | 1 | – | 5431 | 3.66e5 | inactive |
| cnn | 2 | – | 6591 | 4.53e5 | inactive |
| stretch (retired record) | 1 | – | 6843 | 2.94e5 | inactive |
| stretch (retired record) | 2 | – | 7311 | 3.97e5 | inactive |
| stretch (retired record) | 3 | – | 7074 | 4.11e5 | inactive |
| stretch (retired record) | 4 | – | 7263 | 4.72e5 | inactive |
| stretch (retired record) | 5 | – | 7635 | 4.55e5 | inactive |
| stretch (retired record) | 6 | – | 4575 | 2.91e5 | inactive |
| CG13965 | 1 | – | 6970 | 4.81e5 | inactive |
| Grip163 | 1 | – | 7178 | 3.79e5 | inactive |
| nrm | 1 | – | 5207 | 3.49e5 | inactive |
| nrm | 2 | – | 6644 | 5.15e5 | inactive |
| nrm | 3 | – | 6836 | 4.16e5 | inactive |

An excerpt from the list above, for reference:
| target gene | reagent | miRNA reporter change | stable assay Renilla, run 1 (luminescence) | stable assay firefly, run 1 (luminescence) | Outcome |
| --- | --- | --- | --- | --- | --- |
| Drep1 | 1 | – | 5247 | 3.53e5 | inactive |
| Cpr65Ay | 1 | – | 5090 | 4.59e5 | inactive |
| peo | 1 | – | 7790 | 3.84e5 | inactive |
| CG12811 | 1 | – | 6879 | 4.27e5 | inactive |
| mRpS23 | 1 | – | 5090 | 5.00e5 | inactive |
| CG30096 | 1 | – | 9322 | 4.32e5 | inactive |
| CG31279 | 1 | – | 3368 | 3.34e5 | inactive |
